Numbering of substitutions follows the chain as printed. No constants are given. Whether binding was seen depends on the method and setting. Some entries that bind do so weakly or less than the wild type. Blank lines part the entries; values can stand above or below the binder they belong to.
Key:
[1] = target: extracellular Tau (eTau) from conditioned media of human neurons (human) (UniProt P10636); assay: Western blot
[2] = target: extracellular Tau (eTau) from conditioned media of human neurons (human) (UniProt P10636); assay: Western blot of conditioned media
[3] = target: tau in iPSC-CN lysates (human) (UniProt P10636); assay: Western blot of neuronal lysates probed with IPN001
[4] = target: extracellular Tau (eTau) from conditioned media of human neurons (human) (UniProt P10636); assay: Western blot of conditioned media probed with IPN001
[5] = target: eTau4 (UniProt P10636); assay: Octet analysis
[6] = target: tau in AD brain lysates (UniProt P10636); assay: Western blot
[7] = target: tau in P301L tau mouse brain cortex lysates (human (transgene in mouse)) (UniProt P10636); assay: Western blot
[8] = target: tau in iPSC-CN lysates (human) (UniProt P10636); assay: Western blot
[9] = target: tau in iPSC-CN lysates (human) (UniProt P10636); assay: Western blot, iPSC-CN lysates
[10] = target: tau in AD brain lysates (UniProt P10636); assay: Western blot, AD brain lysates
[11] = target: extracellular Tau (eTau) from conditioned media of human neurons (human) (UniProt P10636); assay: Western blot, iPSC-CN conditioned media
[12] = target: tau in P301L tau mouse brain cortex lysates (human (transgene in mouse)) (UniProt P10636); assay: Western blot, P301L tau mouse brain cortex lysates
[13] = target: extracellular Tau (eTau) from conditioned media of human neurons (human) (UniProt P10636); assay: affinity purification from iPSC-CN conditioned media
[14] = target: extracellular Tau (eTau) from conditioned media of human neurons (human) (UniProt P10636); assay: affinity isolation on antibody resin, eluate Western blotted
[15] = target: extracellular Tau (eTau) from conditioned media of human neurons (human) (UniProt P10636); assay: affinity isolation on antibody resin, eluate Western blotted with IPN001

Amino acid sequences for entries named in this document (tags omitted). A change or cut given only in a name is not applied to a line headed by its entry. Chains listed by the source or under a name are the forms on record and can include a tag or linker.
extracellular Tau (eTau) from conditioned media of human neurons (P10636, form named): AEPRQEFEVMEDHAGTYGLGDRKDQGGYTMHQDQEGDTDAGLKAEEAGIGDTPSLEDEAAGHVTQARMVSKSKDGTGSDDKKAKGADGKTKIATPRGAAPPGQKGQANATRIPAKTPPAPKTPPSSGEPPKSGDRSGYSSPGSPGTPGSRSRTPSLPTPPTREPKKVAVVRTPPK
tau in iPSC-CN lysates (P10636, form named): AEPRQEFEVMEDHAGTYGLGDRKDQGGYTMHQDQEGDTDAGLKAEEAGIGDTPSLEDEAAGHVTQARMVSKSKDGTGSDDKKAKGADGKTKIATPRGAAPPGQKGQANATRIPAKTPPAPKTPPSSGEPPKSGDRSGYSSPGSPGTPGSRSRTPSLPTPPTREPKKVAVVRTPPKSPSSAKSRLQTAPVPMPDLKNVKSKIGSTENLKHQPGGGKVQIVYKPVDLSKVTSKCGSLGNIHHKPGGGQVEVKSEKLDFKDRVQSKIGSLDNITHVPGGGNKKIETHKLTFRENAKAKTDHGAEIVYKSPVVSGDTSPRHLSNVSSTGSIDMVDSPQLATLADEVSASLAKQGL
eTau4 (P10636, form named): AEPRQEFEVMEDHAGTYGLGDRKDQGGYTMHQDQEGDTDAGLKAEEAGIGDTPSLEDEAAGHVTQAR
tau in AD brain lysates (P10636, form named): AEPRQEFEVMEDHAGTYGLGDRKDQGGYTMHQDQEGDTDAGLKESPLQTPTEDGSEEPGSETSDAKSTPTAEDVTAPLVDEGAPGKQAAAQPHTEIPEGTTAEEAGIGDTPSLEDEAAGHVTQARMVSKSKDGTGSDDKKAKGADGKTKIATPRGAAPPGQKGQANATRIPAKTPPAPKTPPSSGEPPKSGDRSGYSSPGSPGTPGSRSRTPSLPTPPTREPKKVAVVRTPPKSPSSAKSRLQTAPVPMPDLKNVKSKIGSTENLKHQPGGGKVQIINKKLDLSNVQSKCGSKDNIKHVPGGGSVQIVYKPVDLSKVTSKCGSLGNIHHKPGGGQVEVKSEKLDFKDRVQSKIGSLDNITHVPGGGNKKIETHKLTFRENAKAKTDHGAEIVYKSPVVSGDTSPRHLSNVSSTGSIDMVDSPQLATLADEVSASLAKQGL
tau in P301L tau mouse brain cortex lysates (human (transgene in mouse)) (P10636, form named): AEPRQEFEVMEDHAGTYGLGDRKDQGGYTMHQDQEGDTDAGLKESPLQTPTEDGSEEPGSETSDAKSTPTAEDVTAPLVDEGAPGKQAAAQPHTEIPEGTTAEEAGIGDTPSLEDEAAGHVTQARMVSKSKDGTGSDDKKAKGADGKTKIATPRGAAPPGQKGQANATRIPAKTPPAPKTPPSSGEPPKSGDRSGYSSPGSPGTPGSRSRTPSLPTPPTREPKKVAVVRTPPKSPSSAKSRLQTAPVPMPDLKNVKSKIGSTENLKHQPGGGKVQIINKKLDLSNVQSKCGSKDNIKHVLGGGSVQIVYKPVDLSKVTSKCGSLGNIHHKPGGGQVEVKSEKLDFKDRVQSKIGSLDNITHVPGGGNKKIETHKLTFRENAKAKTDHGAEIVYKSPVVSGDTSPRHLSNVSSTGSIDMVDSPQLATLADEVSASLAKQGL

B1: IPN001 (antibody, V domains shown)
VH: EVQLVESGEDLVKPGGSLKLSCVASGFAFSSYGMSWVRQTPDMRLEWVATISSSGSRTYFPDSVKGRLTISRDNDKNILYLQMSSLRSEDTAMYYCTITWDGAMDYWGRGISVTVSS
VL: DVLMTQTPLSLAVNLGDQASLSCRSSQTILHSNGNTYLEWYLQKPGQSPRLLIYKVSKRFSGVPDRFSGSGSGTDFTLKISRVEADDLGIYYCFQGSLVPWAFGGGTKLEIK
- binding [1]: binds
- binding [2]: binds
- binding [3]: binds
- binding [4]: binds

B2: humanized IPN002 variant VH2/Vk1 (antibody, V domains shown)
VH: EVHLVESGGALVKPGGSLRLSCAASGFSFSKYGMSWVRQAPGKGLEWVATISSSGSRTYYPDSVKGRFTISRDNAKNTLYLQMNSLRAEDTAMYYCSISWDGAMDYWGQGTTVTVSS
VL: DVLMTQSPLSLPVTLGQPASISCKSSQSIVHSNGNTYLEWYLQKPGQSPQLLVYKVSNRFSGVPDRFSGSGSGTDFTLKISRVEAEDVGTYYCFQGSLVPWAFGGGTKVEIK
- binding [5]: binds
- binding [1]: binds
- binding [6]: binds
- binding [7]: binds
- binding [8]: binds
- binding [9]: binds
- binding [10]: binds
- binding [11]: binds
- binding [12]: binds

B3: humanized IPN002 variant VH2/Vk3 (antibody, V domains shown)
VH: B2 VH
VL: B2 VL with L3V, T90V
- binding [5]: binds
- binding [1]: binds
- binding [6]: binds
- binding [7]: binds
- binding [8]: binds
- binding [9]: binds
- binding [10]: binds
- binding [11]: binds
- binding [12]: binds

B5: humanized IPN002 variant VH1/Vk1 (antibody, V domains shown)
VH: B2 VH with N84S, R87K, A88S, T112S
VL: B2 VL
- binding [5]: binds

B6: humanized IPN002 variant VH1/Vk3 (antibody, V domains shown)
VH: B2 VH with N84S, R87K, A88S, T112S
VL: B2 VL with L3V, T90V
- binding [5]: binds

B7: IPN002 (antibody, V domains shown)
VH: B2 VH with R19K, A40T, G42D, G44R, R67Q, N84S, R87K, A88S, T112S
VL: B2 VL with S7T, T14S, Q17D, P18Q, Q50K, V88L, V109L
- binding [13]: binds
- binding [14]: binds
- binding [15]: binds

B9: humanized IPN002 variant VH1/Vk4 (antibody, V domains shown)
VH: B2 VH with N84S, R87K, A88S, T112S
VL: B2 VL with L3V, V53I, T90V
- binding [5]: binds

B10: humanized IPN002 variant VH3/Vk1 (antibody, V domains shown)
VH: B2 VH with H3Q
VL: B2 VL
- binding [5]: binds

B14: humanized IPN002 variant VH1/Vk2 (antibody, V domains shown)
VH: B2 VH with N84S, R87K, A88S, T112S
VL: B2 VL with L3V
- binding [5]: binds

B16: humanized IPN002 variant VH2/Vk2 (antibody, V domains shown)
VH: B2 VH
VL: B2 VL with L3V
- binding [5]: binds
- binding [1]: binds
- binding [6]: binds
- binding [7]: binds
- binding [8]: binds
- binding [9]: binds
- binding [10]: binds
- binding [11]: binds
- binding [12]: binds

B18: humanized IPN002 variant VH2/Vk4 (antibody, V domains shown)
VH: B2 VH
VL: B2 VL with L3V, V53I, T90V
- binding [5]: binds

Other lines, results leading:

- binding [5]: binds
B4: humanized IPN002 variant VH4/Vk4 (antibody, V domains shown)
VH: B2 VH with H3Q, S97A
VL: B2 VL with L3V, V53I, T90V

- binding [5]: binds
B8: humanized IPN002 variant VH3/Vk3 (antibody, V domains shown)
VH: B2 VH with H3Q
VL: B2 VL with L3V, T90V

- binding [5]: binds
B11: humanized IPN002 variant VH4/Vk3 (antibody, V domains shown)
VH: B2 VH with H3Q, S97A
VL: B2 VL with L3V, T90V

- binding [5]: binds
B12: humanized IPN002 variant VH3/Vk2 (antibody, V domains shown)
VH: B2 VH with H3Q
VL: B2 VL with L3V

- binding [5]: binds
B13: humanized IPN002 variant VH4/Vk1 (antibody, V domains shown)
VH: B2 VH with H3Q, S97A
VL: B2 VL

- binding [5]: binds
B15: humanized IPN002 variant VH3/Vk4 (antibody, V domains shown)
VH: B2 VH with H3Q
VL: B2 VL with L3V, V53I, T90V

- binding [5]: binds
B17: humanized IPN002 variant VH4/Vk2 (antibody, V domains shown)
VH: B2 VH with H3Q, S97A
VL: B2 VL with L3V

Source: US20150232544A1
